Paper PMC11267380, “USP25 Elevates SHLD2‐Mediated DNA Double‐Strand Break Repair and Regulates Chemoresponse in Cancer” (Advanced Science, 2024)

Molecular target: MYC-SHLD2 full length
Test: co-IP; MYC-SHLD2 constructs transfected (HEK293T, RKO; control or USP25 knockdown cells); MYC immunoprecipitated (anti-MYC affinity gel), immunoblot; cells untreated or treated with IR (10 Gy), 5-Fu (20 uM) or cisplatin (20 uM)

B1: SHLD3 (protein, UniProt Q6ZNX1 1-250)
chain: MTTEVILHYRPCESDPTQLPKIAEKAIQDFPTRPLSRFIPWFPYDGSKLPLRPKRSPPVISEEAAEDVKQYLTISEHDAKSHSYDCTVDLLEFQPSLKKQHLTWSHTLKEQTNSGNLGKQSEKGKQHKRRSWSISLPSNNCTKNVSPLSKKLQDSLKALNLHSLYRARWTIEHTICNSQTLEDIWTKLNQIIRHNELPSCNATIQRHLGQIWVFCDIMYCEYVGSLLKGRLALTGKINLFVHKYGVIFSM
For B1, the binding was “binds”.

These are yes or no findings as the source states them, for the method shown. In cells and extracts the contact can be indirect. Binding calls can cover weak binding; strength is not graded here.
